Experimental data reported in publication PMC6089211, “Expression and purification of human diacylglycerol kinase α from baculovirus-infected insect cells for structural studies” (PeerJ, 2018).
These are yes or no findings as the source states them, for the method shown.

Amino acid sequences for entries named in this document (tags omitted).
UniProt P23743: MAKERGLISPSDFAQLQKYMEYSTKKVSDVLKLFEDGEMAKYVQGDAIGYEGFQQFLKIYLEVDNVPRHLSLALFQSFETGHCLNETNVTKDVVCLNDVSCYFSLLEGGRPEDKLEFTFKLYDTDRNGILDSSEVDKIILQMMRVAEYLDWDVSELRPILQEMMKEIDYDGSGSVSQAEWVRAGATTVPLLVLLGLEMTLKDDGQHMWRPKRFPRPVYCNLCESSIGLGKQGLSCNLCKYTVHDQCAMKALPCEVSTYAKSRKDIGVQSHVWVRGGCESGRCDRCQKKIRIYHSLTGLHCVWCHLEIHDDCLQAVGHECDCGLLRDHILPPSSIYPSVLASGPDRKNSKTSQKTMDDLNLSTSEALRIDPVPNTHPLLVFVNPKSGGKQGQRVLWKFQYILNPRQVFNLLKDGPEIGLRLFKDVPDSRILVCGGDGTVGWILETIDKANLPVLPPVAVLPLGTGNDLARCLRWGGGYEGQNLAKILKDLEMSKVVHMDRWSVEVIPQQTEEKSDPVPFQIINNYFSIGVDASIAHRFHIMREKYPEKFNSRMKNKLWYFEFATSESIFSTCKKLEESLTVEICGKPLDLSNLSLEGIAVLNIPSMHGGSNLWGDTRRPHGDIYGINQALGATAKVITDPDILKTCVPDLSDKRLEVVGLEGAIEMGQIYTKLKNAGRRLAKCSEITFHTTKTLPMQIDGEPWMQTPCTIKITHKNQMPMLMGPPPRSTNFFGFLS

Legend:
[1] = biological target: full-length human diacylglycerol kinase α (aa 1–735) with N-terminal His×6 tag (human) (UniProt P23743); assay: SEC; Superdex 200 16/60; Ni-affinity fractions of DGKα; 20 mM Tris–HCl pH 7.4, 200 mM NaCl, 3 mM CaCl2, 3 mM MgCl2, 0.5 mM dithiothreitol, 5% glycerol; calibrated with gel filtration standards; single peak at 73.5 mL; both purified
[2] = biological target: full-length human diacylglycerol kinase α (aa 1–735) with N-terminal His×6 tag (human) (UniProt P23743); assay: SEC; Superdex 200 16/60; 15 mL of the 50 mM imidazole Ni-affinity fraction concentrated to 4 mL with a centrifugal filter (Amicon Ultra-15); 20 mM Tris-HCl pH 7.4, 200 mM NaCl, 3 mM CaCl2, 3 mM MgCl2, 0.5 mM DTT, 5% glycerol; both purified

binding [1]: no binding
binding [2]: no binding
Substance: full-length human diacylglycerol kinase α (aa 1–735) with N-terminal His×6 tag (from UniProt P23743 1-735) (enzyme)
